{
  "source": "PubChem BioAssay AID504834",
  "about": "(National Center for Advancing Translational Sciences (NCATS), 2011)",
  "note": "About 22,000 (6.9%) of roughly 320,000 compounds were called active. Inconclusive results, whose numbers are uncertain, are shown with a selection of clear calls. The call rests on the fitted dose curve; in most records, active means well fitted inhibition curve with a large enough effect; inconclusive means small, poorly fitted or top-dose-only effect, or another doubt; inactive means no such curve, though single readings can be large or run the other way. A potency beside an inconclusive call is a rough fit, not a confirmed value. Potency means the concentration at half of the fitted maximal effect.",
  "data": [
    {"test": "Primary qHTS for delayed death inhibitors of the malarial parasite plastid, 96 hour incubation", "details": "P. falciparum luciferase reporter growth; series mostly up to 28.7 µM", "summary_of_the_method": "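Cell-based qHTS: luciferase-tagged P. falciparum in erythrocytes (2% hematocrit, 0.05% parasitemia final) incubated with compounds for 96 hours, 37 C, 5% CO2; luciferase detection reagent then added and luminescence measured.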", "values": [
      {"smiles": "Cc1ccc2cc(CCNC(=O)C(=O)c3c[nH]c4ccccc34)c(=O)[nH]c2c1", "Potency": "inconclusive: 0.465 µM [inhibitor, partial curve, poor fit]"},
      {"smiles": "COc1ccc(CNC(=O)Cn2cc3c(n2)CCCCC3)cc1", "Potency": "inactive"},
      {"smiles": "CCOC(=O)CCCNC(=O)c1cncc(Br)c1", "Potency": "inconclusive: 2.08 µM [inhibitor, partial curve, poor fit]"},
      {"smiles": "CC(=O)OCC1=C(C(=O)O)N2C(=O)C(NC(=O)C(C)Cn3cc(Cl)cn3)C2SC1", "note": "(configuration not stated)", "Potency": "inconclusive: 3.29 µM [inhibitor, full curve]"},
      {"smiles": "CC1C(=O)NN=C1C(=O)N/N=C\\C(Br)=C\\c1ccccc1", "note": "(configuration not stated)", "Potency": "inconclusive: 18.5 µM [inhibitor, single point]"},
      {"smiles": "C=CCOc1ccc(/C(O)=C2\\C(=O)C(=O)N(CCCOC)C2c2ccc(O)c(OC)c2)cc1", "note": "(configuration not stated)", "Potency": "inactive"},
      {"smiles": "Cc1cc(C(=O)O)ccc1-n1c(C)cc(/C=C2\\SC(=O)NC2=O)c1C", "Potency": "inconclusive: 16.5 µM [inhibitor, single point]"},
      {"smiles": "COc1ccc(C(=O)C2CCCN(Cc3ccc(C)s3)C2)cc1OC", "note": "(configuration not stated)", "Potency": "inconclusive: 14.7 µM [inhibitor, single point]"},
      {"smiles": "CCCC(NC(=O)c1ccco1)c1nc2ccccc2[nH]1", "note": "(configuration not stated)", "Potency": "inconclusive: 7.38 µM [inhibitor, partial curve, poor fit]"},
      {"smiles": "O=C(Nc1c2c(nn1-c1ccccc1)CS(=O)(=O)C2)c1ccccc1C(F)(F)F", "Potency": "inactive"},
      {"smiles": "CCn1c(SCC(=O)c2ccc(Br)cc2)nnc1C(C)NC(=O)Cc1ccc(OC)cc1", "note": "(configuration not stated)", "Potency": "inconclusive: 1.47 µM [inhibitor, full curve, poor fit]"},
      {"smiles": "COc1ccc(CS(=O)(=O)/C(Cl)=C(/Cl)C(=O)Nc2ccc(OC)nc2)cc1", "Potency": "inconclusive: 18.5 µM [inhibitor, single point]"},
      {"smiles": "O=C(c1ccc(Cl)c(Cl)c1)N1CCN(c2ccccn2)CC1", "Potency": "inconclusive: 10.4 µM [inhibitor, partial curve]"},
      {"smiles": "CN(C(=O)CSc1nnc(Nc2ccccc2)s1)C1CCS(=O)(=O)C1", "note": "(configuration not stated)", "Potency": "inconclusive: 18.5 µM [inhibitor, partial curve, poor fit]"},
      {"smiles": "C/C(CC(=O)NCCN1CCOCC1)=N\\NC(=O)c1ccncc1", "Potency": "inconclusive: 18.5 µM [inhibitor, single point]"},
      {"smiles": "Cc1ccc(N(C(=O)c2csnn2)C(C(=O)NC(C)(C)C)c2cccnc2)cc1", "note": "(configuration not stated)", "Potency": "inconclusive: 18.5 µM [inhibitor, single point]"},
      {"smiles": "COC(=O)c1ccc(Cn2nnc3c(=O)[nH]c(C4CCN(S(=O)(=O)c5ccc(F)cc5)CC4)nc32)cc1", "Potency": "inconclusive: 11.7 µM [inhibitor, single point]"}
    ]}
  ]
}
